The values below come from the supplement of paper PMC12067093, “Discovery and optimisation of a covalent ligand for TRIM25 and its application to targeted protein ubiquitination” (Chemical Science, 2025).

Sequences of proteins named here, by UniProt entry; tags and fusion partners are left off. A change or cut given only in a name is not applied to a line headed by its entry.
UniProt Q9UBN7: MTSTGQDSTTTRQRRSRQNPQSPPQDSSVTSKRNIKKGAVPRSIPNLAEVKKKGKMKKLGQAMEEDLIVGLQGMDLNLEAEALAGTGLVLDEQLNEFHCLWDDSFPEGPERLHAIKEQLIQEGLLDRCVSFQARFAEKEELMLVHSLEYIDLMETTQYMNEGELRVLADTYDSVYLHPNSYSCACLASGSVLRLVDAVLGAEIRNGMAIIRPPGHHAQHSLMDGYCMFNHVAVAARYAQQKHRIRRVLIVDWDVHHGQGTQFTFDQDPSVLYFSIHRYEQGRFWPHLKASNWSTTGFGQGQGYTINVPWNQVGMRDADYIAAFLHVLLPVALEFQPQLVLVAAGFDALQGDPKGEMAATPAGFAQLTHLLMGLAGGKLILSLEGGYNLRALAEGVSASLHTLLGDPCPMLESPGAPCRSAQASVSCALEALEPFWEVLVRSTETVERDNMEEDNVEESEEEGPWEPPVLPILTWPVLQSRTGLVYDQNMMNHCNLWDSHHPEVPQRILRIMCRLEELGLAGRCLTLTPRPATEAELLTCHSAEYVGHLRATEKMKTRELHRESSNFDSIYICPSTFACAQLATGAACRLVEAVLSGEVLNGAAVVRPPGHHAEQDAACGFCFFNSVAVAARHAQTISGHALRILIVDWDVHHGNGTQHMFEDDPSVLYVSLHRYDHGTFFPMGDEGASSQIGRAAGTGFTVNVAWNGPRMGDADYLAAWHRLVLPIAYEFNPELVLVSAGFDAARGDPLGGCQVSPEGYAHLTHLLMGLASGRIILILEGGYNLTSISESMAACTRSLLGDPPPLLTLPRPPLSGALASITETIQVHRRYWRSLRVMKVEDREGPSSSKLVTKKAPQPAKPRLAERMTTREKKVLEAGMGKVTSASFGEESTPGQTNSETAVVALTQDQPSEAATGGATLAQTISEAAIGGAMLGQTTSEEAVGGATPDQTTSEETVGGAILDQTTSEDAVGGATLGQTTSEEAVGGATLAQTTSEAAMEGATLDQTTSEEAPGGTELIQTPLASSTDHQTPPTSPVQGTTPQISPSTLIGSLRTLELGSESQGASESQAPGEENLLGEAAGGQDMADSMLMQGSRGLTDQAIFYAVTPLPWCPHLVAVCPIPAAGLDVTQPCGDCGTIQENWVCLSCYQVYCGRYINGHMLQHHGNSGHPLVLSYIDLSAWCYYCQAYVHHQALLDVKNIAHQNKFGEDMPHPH
UniProt Q9ULT8: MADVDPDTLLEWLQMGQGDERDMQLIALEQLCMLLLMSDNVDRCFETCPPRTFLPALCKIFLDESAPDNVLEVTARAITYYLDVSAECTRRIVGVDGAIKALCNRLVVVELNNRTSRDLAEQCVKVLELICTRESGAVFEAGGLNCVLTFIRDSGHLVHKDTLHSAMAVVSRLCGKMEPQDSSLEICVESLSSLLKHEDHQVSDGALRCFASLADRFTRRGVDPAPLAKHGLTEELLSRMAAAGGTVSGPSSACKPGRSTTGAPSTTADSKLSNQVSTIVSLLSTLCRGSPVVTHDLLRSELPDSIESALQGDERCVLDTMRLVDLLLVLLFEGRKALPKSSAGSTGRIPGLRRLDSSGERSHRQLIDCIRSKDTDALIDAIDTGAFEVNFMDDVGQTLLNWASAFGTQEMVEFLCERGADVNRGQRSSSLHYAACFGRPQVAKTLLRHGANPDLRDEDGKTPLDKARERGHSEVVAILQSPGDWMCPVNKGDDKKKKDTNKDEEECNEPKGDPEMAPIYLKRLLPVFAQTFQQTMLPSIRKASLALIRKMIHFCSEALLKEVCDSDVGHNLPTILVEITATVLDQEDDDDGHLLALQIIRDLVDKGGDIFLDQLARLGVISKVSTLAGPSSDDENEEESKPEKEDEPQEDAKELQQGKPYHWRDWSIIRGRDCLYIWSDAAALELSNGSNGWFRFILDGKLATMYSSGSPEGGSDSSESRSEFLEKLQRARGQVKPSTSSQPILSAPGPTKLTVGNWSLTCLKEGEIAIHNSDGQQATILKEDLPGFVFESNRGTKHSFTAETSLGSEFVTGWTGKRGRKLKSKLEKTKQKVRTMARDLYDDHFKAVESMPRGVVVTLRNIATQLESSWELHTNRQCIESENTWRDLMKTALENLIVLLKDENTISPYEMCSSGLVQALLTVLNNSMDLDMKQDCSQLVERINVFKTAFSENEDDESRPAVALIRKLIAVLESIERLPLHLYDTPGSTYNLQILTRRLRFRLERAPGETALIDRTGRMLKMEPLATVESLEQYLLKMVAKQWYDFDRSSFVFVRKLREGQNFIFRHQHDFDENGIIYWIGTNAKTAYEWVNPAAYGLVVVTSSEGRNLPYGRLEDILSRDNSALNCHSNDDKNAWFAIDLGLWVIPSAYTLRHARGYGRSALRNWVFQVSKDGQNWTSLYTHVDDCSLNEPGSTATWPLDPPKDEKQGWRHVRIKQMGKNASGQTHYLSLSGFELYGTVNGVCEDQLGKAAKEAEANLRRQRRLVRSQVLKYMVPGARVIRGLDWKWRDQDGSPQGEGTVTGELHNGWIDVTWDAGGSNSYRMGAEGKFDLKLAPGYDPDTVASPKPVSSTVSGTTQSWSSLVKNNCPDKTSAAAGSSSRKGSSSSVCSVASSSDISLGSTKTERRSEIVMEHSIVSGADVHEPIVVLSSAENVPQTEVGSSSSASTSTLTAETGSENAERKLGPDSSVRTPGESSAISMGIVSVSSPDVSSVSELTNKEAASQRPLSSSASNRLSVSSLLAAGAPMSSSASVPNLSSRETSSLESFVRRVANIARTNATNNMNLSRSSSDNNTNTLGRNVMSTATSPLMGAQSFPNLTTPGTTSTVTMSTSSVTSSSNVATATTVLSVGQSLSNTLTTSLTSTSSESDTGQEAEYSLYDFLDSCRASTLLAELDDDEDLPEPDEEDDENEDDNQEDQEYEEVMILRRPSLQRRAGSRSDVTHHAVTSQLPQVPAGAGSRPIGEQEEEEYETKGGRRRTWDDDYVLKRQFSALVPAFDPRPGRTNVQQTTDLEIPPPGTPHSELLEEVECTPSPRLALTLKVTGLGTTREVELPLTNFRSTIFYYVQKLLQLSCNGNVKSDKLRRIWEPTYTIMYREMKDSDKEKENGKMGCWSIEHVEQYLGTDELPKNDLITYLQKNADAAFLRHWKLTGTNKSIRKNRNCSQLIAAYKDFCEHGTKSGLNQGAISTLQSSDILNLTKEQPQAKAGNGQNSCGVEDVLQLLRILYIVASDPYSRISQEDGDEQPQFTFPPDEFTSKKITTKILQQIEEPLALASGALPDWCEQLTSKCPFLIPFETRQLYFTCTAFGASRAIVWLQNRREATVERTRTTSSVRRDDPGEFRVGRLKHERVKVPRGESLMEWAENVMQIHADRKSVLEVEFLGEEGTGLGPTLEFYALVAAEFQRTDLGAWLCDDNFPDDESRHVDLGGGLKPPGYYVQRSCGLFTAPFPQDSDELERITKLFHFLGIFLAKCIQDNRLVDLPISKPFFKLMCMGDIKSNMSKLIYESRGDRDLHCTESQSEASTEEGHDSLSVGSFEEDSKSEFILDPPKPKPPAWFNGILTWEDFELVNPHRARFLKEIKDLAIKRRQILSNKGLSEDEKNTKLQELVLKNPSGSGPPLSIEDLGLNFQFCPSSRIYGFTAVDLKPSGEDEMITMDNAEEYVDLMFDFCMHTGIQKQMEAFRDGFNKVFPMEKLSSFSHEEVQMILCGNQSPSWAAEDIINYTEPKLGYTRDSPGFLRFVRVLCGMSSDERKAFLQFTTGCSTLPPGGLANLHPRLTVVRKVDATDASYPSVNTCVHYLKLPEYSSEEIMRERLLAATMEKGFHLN
UniProt P19367: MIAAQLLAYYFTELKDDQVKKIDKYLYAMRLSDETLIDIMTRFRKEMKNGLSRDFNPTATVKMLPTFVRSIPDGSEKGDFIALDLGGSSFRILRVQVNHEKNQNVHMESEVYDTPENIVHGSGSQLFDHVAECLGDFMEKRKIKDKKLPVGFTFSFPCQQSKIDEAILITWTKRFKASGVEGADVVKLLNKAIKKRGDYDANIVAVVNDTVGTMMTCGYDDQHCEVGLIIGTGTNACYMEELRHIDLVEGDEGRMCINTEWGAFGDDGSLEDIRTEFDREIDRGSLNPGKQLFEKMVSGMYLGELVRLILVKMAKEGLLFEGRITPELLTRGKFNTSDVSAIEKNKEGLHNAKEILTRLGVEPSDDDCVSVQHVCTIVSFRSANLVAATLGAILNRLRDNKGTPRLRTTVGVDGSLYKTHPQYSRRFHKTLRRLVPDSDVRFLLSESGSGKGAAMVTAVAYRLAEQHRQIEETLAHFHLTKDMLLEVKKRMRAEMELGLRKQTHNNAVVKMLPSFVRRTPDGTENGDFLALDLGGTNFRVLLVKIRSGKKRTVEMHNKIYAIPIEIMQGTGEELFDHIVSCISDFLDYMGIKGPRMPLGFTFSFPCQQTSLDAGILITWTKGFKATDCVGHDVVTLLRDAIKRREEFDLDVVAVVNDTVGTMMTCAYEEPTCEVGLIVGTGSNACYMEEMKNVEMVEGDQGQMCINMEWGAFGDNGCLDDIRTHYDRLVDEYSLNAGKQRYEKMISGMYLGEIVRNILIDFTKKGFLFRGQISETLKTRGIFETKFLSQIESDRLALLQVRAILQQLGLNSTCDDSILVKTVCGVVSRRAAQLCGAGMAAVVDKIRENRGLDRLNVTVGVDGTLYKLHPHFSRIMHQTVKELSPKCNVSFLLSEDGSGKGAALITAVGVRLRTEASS
UniProt P13747, whole entry, looked up: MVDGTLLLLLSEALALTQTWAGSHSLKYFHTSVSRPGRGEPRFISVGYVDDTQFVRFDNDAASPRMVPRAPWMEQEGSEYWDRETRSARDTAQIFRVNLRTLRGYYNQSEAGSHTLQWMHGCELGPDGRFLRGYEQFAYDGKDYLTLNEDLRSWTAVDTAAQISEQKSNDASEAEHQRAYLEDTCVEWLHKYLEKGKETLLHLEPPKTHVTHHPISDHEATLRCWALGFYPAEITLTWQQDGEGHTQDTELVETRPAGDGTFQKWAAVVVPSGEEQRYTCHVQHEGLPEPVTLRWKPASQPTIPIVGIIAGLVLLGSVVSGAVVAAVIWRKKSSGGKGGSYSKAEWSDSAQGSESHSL
UniProt Q9NQE9: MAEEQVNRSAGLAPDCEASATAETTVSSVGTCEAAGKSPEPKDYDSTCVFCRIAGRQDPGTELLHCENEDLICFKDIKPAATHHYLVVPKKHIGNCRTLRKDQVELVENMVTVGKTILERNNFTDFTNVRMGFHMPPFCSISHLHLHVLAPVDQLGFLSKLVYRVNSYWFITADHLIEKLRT
UniProt Q6AI08: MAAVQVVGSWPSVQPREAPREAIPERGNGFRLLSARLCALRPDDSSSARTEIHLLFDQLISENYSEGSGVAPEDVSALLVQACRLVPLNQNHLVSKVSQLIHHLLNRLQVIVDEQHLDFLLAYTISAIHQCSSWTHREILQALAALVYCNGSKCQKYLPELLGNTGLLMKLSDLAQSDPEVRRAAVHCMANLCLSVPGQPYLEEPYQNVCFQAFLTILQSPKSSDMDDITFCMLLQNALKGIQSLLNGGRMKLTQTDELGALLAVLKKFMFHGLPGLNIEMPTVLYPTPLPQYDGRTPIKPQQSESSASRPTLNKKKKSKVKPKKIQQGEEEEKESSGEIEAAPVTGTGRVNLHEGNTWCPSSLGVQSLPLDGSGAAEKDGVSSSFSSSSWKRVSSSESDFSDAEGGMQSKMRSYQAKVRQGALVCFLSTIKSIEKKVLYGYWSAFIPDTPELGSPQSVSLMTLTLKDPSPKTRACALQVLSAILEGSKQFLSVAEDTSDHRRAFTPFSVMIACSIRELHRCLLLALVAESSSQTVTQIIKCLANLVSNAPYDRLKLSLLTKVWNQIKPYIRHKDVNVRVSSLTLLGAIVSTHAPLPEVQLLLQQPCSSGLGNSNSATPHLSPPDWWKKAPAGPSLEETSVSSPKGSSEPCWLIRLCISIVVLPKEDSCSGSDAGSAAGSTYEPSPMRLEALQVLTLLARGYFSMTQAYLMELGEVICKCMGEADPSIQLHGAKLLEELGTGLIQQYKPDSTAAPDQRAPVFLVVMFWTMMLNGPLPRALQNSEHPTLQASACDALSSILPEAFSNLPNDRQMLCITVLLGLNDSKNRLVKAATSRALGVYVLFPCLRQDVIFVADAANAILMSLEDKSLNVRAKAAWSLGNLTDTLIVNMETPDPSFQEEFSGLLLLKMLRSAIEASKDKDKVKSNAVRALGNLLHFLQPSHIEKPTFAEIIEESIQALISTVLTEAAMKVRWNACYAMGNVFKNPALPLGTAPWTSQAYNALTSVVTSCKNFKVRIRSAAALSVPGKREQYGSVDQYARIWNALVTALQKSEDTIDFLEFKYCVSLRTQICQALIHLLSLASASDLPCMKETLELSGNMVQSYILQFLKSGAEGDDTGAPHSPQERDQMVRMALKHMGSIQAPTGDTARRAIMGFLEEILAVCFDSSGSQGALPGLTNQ

The list shows a part of the results.
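Note: competitive profiling in live THP-1 cells: cysteine peptides tagged with an iodoacetamide desthiobiotin (IA-DTB) probe, intensity after compound treatment relative to DMSO-treated cells.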

Compound in one assay: Cc1cc(ccc1-c1ccccc1)C(=O)N1CCCN(CC1)C(=O)CCl [compound 10]
As to the kind of experiment: probe-labelled cysteine peptide fold change vs DMSO (competition) (log2 fold change); higher = less target engagement (more negative = stronger competition). To be noted: 10 µM; THP-1; incubation time: 4 h.
Regarding “HDAC6_Q9UBN7_407_ALAEGVSASLHTLLGDPCPMLESPGAPCR (UniProt Q9UBN7)”, the “probe-labelled cysteine peptide fold change” value is 0.0324.

Take “HELLS_Q9NRZ9_836_ILENSEDSSPECLF (UniProt Q9NRZ9)”: the “probe-labelled cysteine peptide fold change” value was -0.15.

As for “HLTF_Q14527_780_LILSSGSDEECAICLDSLTVPVITHCAHVFCK (UniProt Q14527)”, the “probe-labelled cysteine peptide fold change” value came out at 0.357.

Consider “HGS_O14964_212_VCEPCYEQLNR (UniProt O14964)”, for which the “probe-labelled cysteine peptide fold change” value came out at 0.0236.

Consider “HDAC4_P56524_669_HQCTCGSSSSHPEHAGR (UniProt P56524)”, for which the “probe-labelled cysteine peptide fold change” value amounted to 0.232.

Regarding “HECTD4_Q9Y4D8-5_230_ENAAAALVALACAR (UniProt Q9Y4D8)”, the “probe-labelled cysteine peptide fold change” value was 0.183.

For the target “HECTD4_Q9Y4D8_3836_ELQNVECVTAVR (UniProt Q9Y4D8)”, the “probe-labelled cysteine peptide fold change” value stood at 0.0622.

In the case of “HDDC2_Q7Z4H3_145_QLDQCEMILQASEYEDLEHKPGR (UniProt Q7Z4H3)”, the “probe-labelled cysteine peptide fold change” value was -0.0727.

Take “HECTD1_Q9ULT8_762_LTVGNWSLTCLK (UniProt Q9ULT8)”: the “probe-labelled cysteine peptide fold change” value was 0.0373.

For the target “HK1_P19367_256_MCINTEWGAFGDDGSLEDIRTEFDREIDR (UniProt P19367)”, the “probe-labelled cysteine peptide fold change” value worked out at 0.329.

Take “HLTF_Q14527_896_RVESIQCFQNTEAGSPTIMLLSLK (UniProt Q14527)”: the “probe-labelled cysteine peptide fold change” value was -0.00412.

“HEXB_P07686_360_CWESNPK (UniProt P07686)”: the “probe-labelled cysteine peptide fold change” value was 0.0248.

For “HDAC5_Q9UQL6_696_HQCMCGNTHVHPEHAGR (UniProt Q9UQL6)”, the “probe-labelled cysteine peptide fold change” value was determined as 0.0181.

With “HMBS_P08397_114_DLPTVLPPGFTIGAICK (UniProt P08397)”, the “probe-labelled cysteine peptide fold change” value amounted to 0.0394.

Regarding “HEATR1_Q9H583_1899_AQHSENDLEEVGKTENCIIDCLVAMVVK (UniProt Q9H583)”, the “probe-labelled cysteine peptide fold change” value stood at 0.0405.

As for “HEATR3_Q7Z4Q2_57_ECACAGLAR (UniProt Q7Z4Q2)”, the “probe-labelled cysteine peptide fold change” value is -1.43.

As to “HLA-E_P13747_185_AYLEDTCVEWLHK (UniProt P13747)”, the “probe-labelled cysteine peptide fold change” value was -0.138.

“HCK_P08631_395_AANILVSASLVCK (UniProt P08631)”: the “probe-labelled cysteine peptide fold change” value amounted to 0.0556.

Turning to HINT3_Q9NQE9_96_HIGNCR (UniProt Q9NQE9), the “probe-labelled cysteine peptide fold change” value was -0.00489.

Turning to HLA-DRA_P01903_132_EPNVLICFIDK, the “probe-labelled cysteine peptide fold change” value was 0.0668.

Turning to “HECTD1_Q9ULT8_1944_NCSQLIAAYK (UniProt Q9ULT8)”, the “probe-labelled cysteine peptide fold change” value is -0.00574.

With “HGS_O14964_185+190_ACGQIFCGK (UniProt O14964)”, the “probe-labelled cysteine peptide fold change” value was -0.267.

Regarding “HGH1_Q9BTY7_51_HVLALTGCGPGR (UniProt Q9BTY7)”, the “probe-labelled cysteine peptide fold change” value was -0.0673.

Consider “HCFC1_P51610_1895_TCLPGFPGAPCAIK (UniProt P51610)”, for which the “probe-labelled cysteine peptide fold change” value stood at 0.0141.

For “HERC1_Q15751_3002_RNHPGCGR (UniProt Q15751)”, the “probe-labelled cysteine peptide fold change” value was determined as 0.121.

For the target “HERC4_Q5GLZ8_248+249_IVYICCGEDHTAALTK (UniProt Q5GLZ8)”, the “probe-labelled cysteine peptide fold change” value came to 0.0115.

Regarding “HDAC3_O15379_268_LGCFNLSIR (UniProt O15379)”, the “probe-labelled cysteine peptide fold change” value is -0.0586.

Turning to “HEATR1_Q9H583_182_GTLITHCYK (UniProt Q9H583)”, the “probe-labelled cysteine peptide fold change” value was -0.0527.

As to “HDAC7_Q8WUI4_533_HQCSCGDNSR (UniProt Q8WUI4)”, the “probe-labelled cysteine peptide fold change” value was determined as 0.181.

Take “HDAC9_Q9UKV0_353_CETQTLR (UniProt Q9UKV0)”: the “probe-labelled cysteine peptide fold change” value was -0.0966.

“HECTD1_Q9ULT8_316_CVLDTMR (UniProt Q9ULT8)”: the “probe-labelled cysteine peptide fold change” value is -0.264.

With “HK1_P19367_375_LGVEPSDDDCVSVQHVCTIVSFR (UniProt P19367)”, the “probe-labelled cysteine peptide fold change” value is -0.147.

Turning to “HCFC1_P51610_326_AGHCAVAINTR (UniProt P51610)”, the “probe-labelled cysteine peptide fold change” value stood at 0.0299.

Turning to “HERC1_Q15751_1941_CSSGIPLVGNLR (UniProt Q15751)”, the “probe-labelled cysteine peptide fold change” value was -0.231.

For the target “HERC4_Q5GLZ8_160_ASEVFCWGQNK (UniProt Q5GLZ8)”, the “probe-labelled cysteine peptide fold change” value was -0.118.

With “HEATR1_Q9H583_631_SGICSLHPLLR (UniProt Q9H583)”, the “probe-labelled cysteine peptide fold change” value was determined as 0.22.

As to “HEATR6_Q6AI08_232_SSDMDDITFCMLLQNALK (UniProt Q6AI08)”, the “probe-labelled cysteine peptide fold change” value was found to be 0.0594.

The same assay, now with this note: 50 µM; THP-1; incubation time: 4 h.
On to “HDAC6_Q9UBN7_407_ALAEGVSASLHTLLGDPCPMLESPGAPCR (UniProt Q9UBN7)”, for which the “probe-labelled cysteine peptide fold change” value is -0.19.

Turning to “HELLS_Q9NRZ9_836_ILENSEDSSPECLF (UniProt Q9NRZ9)”, the “probe-labelled cysteine peptide fold change” value is -0.108.

Turning to “HLTF_Q14527_780_LILSSGSDEECAICLDSLTVPVITHCAHVFCK (UniProt Q14527)”, the “probe-labelled cysteine peptide fold change” value amounted to 0.633.

On to “HGS_O14964_212_VCEPCYEQLNR (UniProt O14964)”, for which the “probe-labelled cysteine peptide fold change” value was -0.13.

In the case of “HDAC4_P56524_669_HQCTCGSSSSHPEHAGR (UniProt P56524)”, the “probe-labelled cysteine peptide fold change” value is 0.528.

For the target “HECTD4_Q9Y4D8-5_230_ENAAAALVALACAR (UniProt Q9Y4D8)”, the “probe-labelled cysteine peptide fold change” value amounted to 0.102.

On to “HECTD4_Q9Y4D8_3836_ELQNVECVTAVR (UniProt Q9Y4D8)”, for which the “probe-labelled cysteine peptide fold change” value is -0.122.

With “HDDC2_Q7Z4H3_145_QLDQCEMILQASEYEDLEHKPGR (UniProt Q7Z4H3)”, the “probe-labelled cysteine peptide fold change” value stood at 0.0582.

Consider “HECTD1_Q9ULT8_762_LTVGNWSLTCLK (UniProt Q9ULT8)”, for which the “probe-labelled cysteine peptide fold change” value came out at 0.0401.

For “HK1_P19367_256_MCINTEWGAFGDDGSLEDIRTEFDREIDR (UniProt P19367)”, the “probe-labelled cysteine peptide fold change” value amounted to 0.529.

As for “HLTF_Q14527_896_RVESIQCFQNTEAGSPTIMLLSLK (UniProt Q14527)”, the “probe-labelled cysteine peptide fold change” value was -0.00533.

Turning to “HEXB_P07686_360_CWESNPK (UniProt P07686)”, the “probe-labelled cysteine peptide fold change” value was -0.0402.

On to “HDAC5_Q9UQL6_696_HQCMCGNTHVHPEHAGR (UniProt Q9UQL6)”, for which the “probe-labelled cysteine peptide fold change” value came out at 0.0687.

Regarding “HMBS_P08397_114_DLPTVLPPGFTIGAICK (UniProt P08397)”, the “probe-labelled cysteine peptide fold change” value was -0.101.

Turning to “HEATR1_Q9H583_1899_AQHSENDLEEVGKTENCIIDCLVAMVVK (UniProt Q9H583)”, the “probe-labelled cysteine peptide fold change” value turned out to be 0.317.

In the case of “HEATR3_Q7Z4Q2_57_ECACAGLAR (UniProt Q7Z4Q2)”, the “probe-labelled cysteine peptide fold change” value is -4.94.

As for “HLA-E_P13747_185_AYLEDTCVEWLHK (UniProt P13747)”, the “probe-labelled cysteine peptide fold change” value was 0.067.

Regarding “HCK_P08631_395_AANILVSASLVCK (UniProt P08631)”, the “probe-labelled cysteine peptide fold change” value was determined as 0.0105.

As to HINT3_Q9NQE9_96_HIGNCR (UniProt Q9NQE9), the “probe-labelled cysteine peptide fold change” value worked out at 0.142.

Consider HLA-DRA_P01903_132_EPNVLICFIDK, for which the “probe-labelled cysteine peptide fold change” value came out at 0.138.

Consider “HECTD1_Q9ULT8_1944_NCSQLIAAYK (UniProt Q9ULT8)”, for which the “probe-labelled cysteine peptide fold change” value is -0.32.

“HGS_O14964_185+190_ACGQIFCGK (UniProt O14964)”: the “probe-labelled cysteine peptide fold change” value is -0.635.

“HGH1_Q9BTY7_51_HVLALTGCGPGR (UniProt Q9BTY7)”: the “probe-labelled cysteine peptide fold change” value is -0.0365.

For “HCFC1_P51610_1895_TCLPGFPGAPCAIK (UniProt P51610)”, the “probe-labelled cysteine peptide fold change” value was -0.271.

With “HERC1_Q15751_3002_RNHPGCGR (UniProt Q15751)”, the “probe-labelled cysteine peptide fold change” value turned out to be 0.209.

As to “HERC4_Q5GLZ8_248+249_IVYICCGEDHTAALTK (UniProt Q5GLZ8)”, the “probe-labelled cysteine peptide fold change” value was -0.359.

For “HDAC3_O15379_268_LGCFNLSIR (UniProt O15379)”, the “probe-labelled cysteine peptide fold change” value was found to be 0.0393.

In the case of “HEATR1_Q9H583_182_GTLITHCYK (UniProt Q9H583)”, the “probe-labelled cysteine peptide fold change” value stood at 0.253.

Consider “HDAC7_Q8WUI4_533_HQCSCGDNSR (UniProt Q8WUI4)”, for which the “probe-labelled cysteine peptide fold change” value stood at 0.421.

As for “HDAC9_Q9UKV0_353_CETQTLR (UniProt Q9UKV0)”, the “probe-labelled cysteine peptide fold change” value is -0.208.

“HECTD1_Q9ULT8_316_CVLDTMR (UniProt Q9ULT8)”: the “probe-labelled cysteine peptide fold change” value amounted to 0.0341.

Take “HK1_P19367_375_LGVEPSDDDCVSVQHVCTIVSFR (UniProt P19367)”: the “probe-labelled cysteine peptide fold change” value is 0.0649.

As to “HCFC1_P51610_326_AGHCAVAINTR (UniProt P51610)”, the “probe-labelled cysteine peptide fold change” value worked out at 0.185.

Consider “HERC1_Q15751_1941_CSSGIPLVGNLR (UniProt Q15751)”, for which the “probe-labelled cysteine peptide fold change” value was -0.896.

As for “HERC4_Q5GLZ8_160_ASEVFCWGQNK (UniProt Q5GLZ8)”, the “probe-labelled cysteine peptide fold change” value is -0.0566.

In the case of “HEATR1_Q9H583_631_SGICSLHPLLR (UniProt Q9H583)”, the “probe-labelled cysteine peptide fold change” value was 0.231.

As to “HEATR6_Q6AI08_232_SSDMDDITFCMLLQNALK (UniProt Q6AI08)”, the “probe-labelled cysteine peptide fold change” value was -0.235.
